In PubChem BioAssay AID2685 (National Center for Advancing Translational Sciences (NCATS), 2010):
Screen size: about 320,000 compounds; about 2,100 (0.66%) were called active. The shares of active, inactive and inconclusive entries below differ from those in the screen. The call rests on the fitted dose curve; in most records, active means well fitted inhibition curve with a large enough effect in the signal ratio, with a control signal flat (not every such curve was filed as active); inconclusive means small, poorly fitted or top-dose-only effect, or effect the other way, or a change in a side signal; inactive means flat fitted curve, though single readings scatter; the % refers to the signal ratio. A potency beside an inconclusive call is a rough fit, not a confirmed value.

Experiment: qHTS Assay for Lipid Storage Modulators in Drosophila S3 Cells
Details: BODIPY lipid droplet fluorescence, 18-24 h, cells fed with added oleic acid; lipid storage change, negative = inhibition: at 46.1 µM (top of the series) unless noted
Procedure, shortened: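 Laser-scanning cytometry quantifies lipid droplet accumulation (500–530 nm total intensity; droplet/cell object ratio) in oleic acid-fed (400 uM added) Drosophila S3 cells treated with a concentration series. 20 uM Triacsin C defined 100% inhibition.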
On the % scale 0 is the no-effect control and ±100 the full control effect; potency means the concentration at half of the fitted maximal effect.

Q: Which lipid storage change, negative = inhibition does the source give for CCO[C@@H]1OC(C(=O)NCc2ccccc2)=C[C@H](C)[C@H]1CCCO here?
A: inconclusive: -27.9%

Q: With COc1cc(/C=N/NC(=O)CCc2ccccc2)ccc1O as the compound, how does the lipid storage change, negative = inhibition read?
A: inconclusive: 25.3%

Q: Which Potency does the source give for CC(C)(C)C1CCc2c(sc(NC(=O)CSc3nnc(-c4ccccc4)o3)c2C#N)C1 (stereo unspecified) here?
A: active: 4110 nM

Q: With CN(C)c1oc(-c2ccccc2Cl)nc1P(=O)(c1ccccc1)c1ccccc1 as the compound, how does the lipid storage change, negative = inhibition read?
A: inconclusive: 168%

Q: With CCOCC(=O)Nc1ccc(S(=O)(=O)N2CCOCC2)cc1 as the compound, how does the lipid storage change, negative = inhibition read?
A: inconclusive: -2.4%

Q: With O=C1C2CCCN2C(c2cccs2)N1c1ccc(Cl)cc1 (stereo unspecified) as the compound, how does the “lipid storage change, negative = inhibition” value read?
A: inactive: 11.3%

Q: With COc1cccc(C(=O)Nc2ccccc2)c1 as the compound, how does the lipid storage change, negative = inhibition read?
A: inconclusive: 6.29%

Q: For Cc1cc(C)nc(NC(=O)c2cc(-c3ccc4c(c3)OCO4)nc3ccccc23)c1, which Potency is on record?
A: inconclusive: 580 nM [activator, single point]

Q: Which lipid storage change, negative = inhibition does the source give for N#C/C(=C\c1cn(CC(=O)N2CCCC2)c2ccccc12)C(=O)NCc1ccc2c(c1)OCO2 here?
A: inconclusive: 48.4%

Q: With COc1ccc(CN2CCS(=O)(=O)CC2)cc1OC as the compound, how does the lipid storage change, negative = inhibition read?
A: inconclusive: -41.8% [at 9.22 µM]

Q: For CCCn1c(SCC(=O)NCC(=O)Nc2ccc(F)c(F)c2F)nc2ccccc2c1=O, which Potency is on record?
A: inconclusive: 2310 nM [falling, single point]

Q: For CCOc1ccc(N(CC(=O)N2CCN(c3ccccc3F)CC2)S(=O)(=O)c2c(C)noc2C)cc1, which Potency is on record?
A: inconclusive: 29100 nM [activator, partial curve]

Q: Which lipid storage change, negative = inhibition does the source give for Cc1ccc(S(=O)(=O)c2nc(-c3cccs3)oc2NCc2cccnc2)cc1 here?
A: inconclusive: 69.4%

Q: For CC(=O)Nc1ccc(S(=O)(=O)N2CCC(NC(=O)C(Cc3ccccc3F)NC(C)=O)CC2)cc1 (stereo unspecified), which Potency is on record?
A: inconclusive: 29100 nM [activator, single point]

Q: With C=CCn1cc(CN2CCC(C(=O)Nc3cccc(-c4cccc(Cl)c4)c3)CC2)c(C)n1 as the compound, how does the lipid storage change, negative = inhibition read?
A: inconclusive: -26.8%

Q: Which lipid storage change, negative = inhibition does the source give for CC1CCN(C(=O)COc2ccccc2F)CC1 here?
A: inconclusive: 6.45%

Q: With Cc1c(NC(=O)Nc2ccccc2Cl)sc(=S)n1C as the compound, how does the lipid storage change, negative = inhibition read?
A: inconclusive: 3.5%

Q: For Cc1sc2ncnc(Oc3ccc(-n4ccnc4)cc3)c2c1C, which Potency is on record?
A: inconclusive: 1640 nM [activator, full curve]

Q: With O=C(Nc1ccc(Cn2ccnc2)cc1)c1cccc(C(F)(F)F)c1 as the compound, how does the Potency read?
A: inconclusive: 731 nM [activator, full curve]

Q: With CCOC(=O)C1CCCN(C(=O)CSc2nccn2C)C1 (stereo unspecified) as the compound, how does the lipid storage change, negative = inhibition read?
A: inconclusive: 38%

Q: With CCN(CC)CCN1C(=O)c2oc3ccccc3c(=O)c2C1c1cccc(Br)c1 (stereo unspecified) as the compound, how does the Potency read?
A: inconclusive: 6510 nM [activator, partial curve]

Q: With COc1ccccc1/C=C/CN1CC(C)OC(C)C1 (stereo unspecified) as the compound, how does the Potency read?
A: inconclusive: 16400 nM [activator, single point]

Q: For C=CCNc1nc(Cl)nc(NC2CCCCC2)n1, which Potency is on record?
A: inconclusive: 651 nM [activator, single point]

Q: With O=C(/C=C/c1ccc(Cl)cc1)Nc1ccc(N2CCCCC2)cc1 as the compound, how does the lipid storage change, negative = inhibition read?
A: inconclusive: 73.4%

Q: With O=C(Nc1ccc(C(F)(F)F)cc1)c1csc(-c2ccncc2)n1 as the compound, how does the lipid storage change, negative = inhibition read?
A: inconclusive: 3.22%

Q: Which Potency does the source give for Cc1ccc(-c2nnc3sc(C4COc5ccccc5O4)nn23)cc1 (stereo unspecified) here?
A: inconclusive: 920 nM [falling, full curve]

Q: For O=C(N/C(=C/c1cn(-c2ccccc2)nc1-c1ccccc1)C(=O)N1CCOCC1)c1ccc(Cl)cc1Cl, which Potency is on record?
A: inconclusive: 651 nM [activator, full curve, poor fit]

Q: Which lipid storage change, negative = inhibition does the source give for Cc1ccc(-c2nnc(-c3ccccc3Br)o2)cc1 here?
A: inconclusive: 16%

Q: For CCOC(=O)CCC(=O)N1CCOCCOCCN(C(=O)CCC(=O)OCC)CCOCCOCC1, which Potency is on record?
A: inconclusive: 2060 nM [falling, partial curve]

Q: Which lipid storage change, negative = inhibition does the source give for CSCCC(NC(=O)c1ccccc1Cl)C(=O)N1CCCCC1 (stereo unspecified) here?
A: inconclusive: 7.38%

Q: For COC(=O)c1ccccc1NC(=O)c1nc2nc(C)cc(C(F)F)n2n1, which Potency is on record?
A: inconclusive: 1840 nM [activator, full curve]

Q: For O=C(Nc1cccc2ncccc12)c1cccc(Br)c1, which lipid storage change, negative = inhibition is on record?
A: inconclusive: -71.7%

Q: For C[C@H](NC(=O)OC(C)(C)C)c1nnc(SCC(=O)Nc2cccc(Cl)c2)o1, which Potency is on record?
A: inconclusive: 116 nM [falling, full curve, poor fit]

Q: Which Potency does the source give for Cc1ccc(C)c(NS(=O)(=O)c2cc(C(=O)NCc3ccco3)ccc2C)c1 here?
A: inconclusive: 1300 nM [activator, partial curve, poor fit]

Q: With CCOc1ccc(NC(=O)CN2C(=O)CSc3ccc(S(=O)(=O)N4CCOCC4)cc32)cc1 as the compound, how does the Potency read?
A: inconclusive: 6510 nM [activator, single point]

Q: With CC1C[N+](=C2C=C(N3CCOCC3)CC(C)(C)C2)CC(C)O1 (stereo unspecified) as the compound, how does the lipid storage change, negative = inhibition read?
A: inconclusive: -5.26%

Q: Which Potency does the source give for O=C1CCC(=O)N1OCCCOc1ccc2c(c1)CCC2 here?
A: inconclusive: 23100 nM [activator, single point]

Q: Which lipid storage change, negative = inhibition does the source give for N#Cc1c(NC(=O)c2ccc([N+](=O)[O-])o2)sc2c1CCC2 here?
A: inconclusive: -84.4%

Q: Which Potency does the source give for CN(CCC#N)C(=S)Nc1ccc(Oc2ccccc2)cc1 here?
A: inconclusive: 651 nM [activator, single point]

Q: With O=C(c1cc(-c2cccs2)on1)N1CCN(C(c2ccccc2)c2ccccc2)CC1 as the compound, how does the lipid storage change, negative = inhibition read?
A: inconclusive: 150%

Q: Which lipid storage change, negative = inhibition does the source give for COC(=O)c1c(CSc2ccc(Cl)cc2)noc1C(=O)NCc1ccco1 here?
A: inconclusive: -25.9%

Q: With O=C(O)/C=C/C(=O)N1CCN(S(=O)(=O)c2cccc(C(F)(F)F)c2)CC1 as the compound, how does the Potency read?
A: inconclusive: 1160 nM [cytotoxic, single point]

Q: Which lipid storage change, negative = inhibition does the source give for Cc1ccc(OCCn2ccnc2)c([N+](=O)[O-])c1 here?
A: inconclusive: 56.2%

Q: For COc1ccc(-c2nnc(SCC(=O)NC3CC3)o2)cc1, which Potency is on record?
A: inconclusive: 92 nM [falling, partial curve, poor fit]

Q: Which Potency does the source give for Cc1ccc2c(c1)nnn2C1CCN(S(=O)(=O)c2ccc(C(=O)N3C(C)CCCC3C)cc2)CC1 (stereo unspecified) here?
A: inconclusive: 29100 nM [falling, single point]

Q: For COc1ccc(-c2cc(=O)oc3cc(OCc4nn[nH]n4)ccc23)cc1, which “lipid storage change, negative = inhibition” value is on record?
A: inactive: 11.3%
